Laboratory results taken from PMC8287961.
No constants are given. Whether binding was seen depends on the method and setting. In cells and extracts the contact can be indirect. A result given as binding can be weak or reduced; the word gives no strength.

The chains behind the UniProt entries cited, without tags or fusion partners. Where a name states a change or a piece, a line headed by the entry shows the natural chain unless it says otherwise.
UniProt P83917: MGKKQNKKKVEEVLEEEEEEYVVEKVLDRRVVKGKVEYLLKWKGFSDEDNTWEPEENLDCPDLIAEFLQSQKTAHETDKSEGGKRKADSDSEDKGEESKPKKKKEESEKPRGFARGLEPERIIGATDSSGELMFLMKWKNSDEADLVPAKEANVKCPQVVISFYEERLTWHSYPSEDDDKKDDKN
UniProt Q13263: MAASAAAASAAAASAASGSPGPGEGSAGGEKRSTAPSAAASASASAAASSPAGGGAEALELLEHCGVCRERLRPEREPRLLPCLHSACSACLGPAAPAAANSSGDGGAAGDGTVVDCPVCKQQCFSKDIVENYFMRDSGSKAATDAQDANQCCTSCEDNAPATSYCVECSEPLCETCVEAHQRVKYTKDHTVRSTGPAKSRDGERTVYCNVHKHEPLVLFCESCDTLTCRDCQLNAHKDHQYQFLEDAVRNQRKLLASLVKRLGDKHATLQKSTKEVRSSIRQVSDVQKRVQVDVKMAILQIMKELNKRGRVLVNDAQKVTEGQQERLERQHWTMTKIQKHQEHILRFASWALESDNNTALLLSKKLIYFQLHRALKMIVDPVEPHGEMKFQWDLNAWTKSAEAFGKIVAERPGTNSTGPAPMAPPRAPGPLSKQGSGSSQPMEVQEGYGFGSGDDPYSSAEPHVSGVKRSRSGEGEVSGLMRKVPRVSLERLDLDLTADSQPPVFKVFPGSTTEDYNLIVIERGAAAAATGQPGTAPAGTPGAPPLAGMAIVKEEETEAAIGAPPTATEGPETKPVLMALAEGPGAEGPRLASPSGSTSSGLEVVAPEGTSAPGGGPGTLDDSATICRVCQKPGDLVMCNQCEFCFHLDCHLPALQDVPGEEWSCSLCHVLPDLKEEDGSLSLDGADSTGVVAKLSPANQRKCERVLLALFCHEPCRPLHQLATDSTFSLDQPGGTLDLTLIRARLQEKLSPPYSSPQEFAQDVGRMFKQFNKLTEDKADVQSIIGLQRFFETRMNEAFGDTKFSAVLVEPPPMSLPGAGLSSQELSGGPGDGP

Molecular target: GFP-HP1β S89D (HEK293T stable line; GFP-HP1β S89/91D) (UniProt P83917)
Experiment: co-IP; nuclear lysates of HEK293T lines stably expressing GFP-HP1β wt or mutants; GFP-Trap; bound fractions on coomassie stained gel; band cut out and identified by mass spectrometry

With “KAP1 (endogenous, HEK293T) (from UniProt Q13263 1-835)” the binding was “binds”.
